Assay results from US20090010942A1, “NOVEL PRIMATE CHITINASES AND USES THEREFOR” (WYETH, priority 2007, published 2009).
At least one read-out could not be matched to a standard name with certainty.

Assay: chitinase kcat and Km determination, hydrolysis of chitobiose-4MU
Format: biochemical
Procedure: Km and Kcat values for hAMCase and mNC. To better understand the mechanism for the increased specific activity of mNC compared to hAMCase, we measured the km and kcat for each enzyme. The progress curves of hAMCase (1 nM) hydrolysis reactions for 4MU product formation were linear during the first 10 min. for chitobioside-4MU substrate concentrations between 0 to 75 μM (data not shown). The rate of product formation was slower at the highest substrate concentration tested, 150 μM, compared to 75 μM, reflecting substrate inhibition due to transglycosylation, consistent with a previous report (Chou et al. (2006) Biochemistry 45, 4444-4454). We confirmed the high substrate concentration was not due to inner filter effect. In separate control experiments, the 4MU fluorescent signal was not quenched by chitobiose-4MU up to 600 μM.
The initial rates within the first 10 min. of hAMCase (1 nM) or mNC (0.25 nM) were plotted against the concentration of chitobiose-4MU that were in the linear range for both enzymes. […] The same Km and Kcat values for each enzyme were obtained from Line-weaver Burke plots of the linear curves.

[1] = Table 1, pH 5.0 citrate phosphate buffer

Substance | kcat/Km [1] | kcat/Km (text b472)
hAMCase: human Acidic Mammalian Chitinase, SEQ ID NO:29 | 71,429 s − 1/M | 71,429 sec^−1/M
mNC: macaque novel chitinase cloned from cynomolgus monkey, SEQ ID NO:2 | 5,300,000 s − 1/M | 5,300,000 sec^−1/M
